Assay results: article PMC2912280
The exact form of at least one protein or probe is not confirmed. Where cells or extracts were used, other partners may take part. For some of these results: A negative result means that nothing was seen under these conditions. For some of these results: At least one verdict was read from the data and is not stated in words by the source.

The chains behind the UniProt entries cited, without tags or fusion partners.
UniProt P40763, whole entry: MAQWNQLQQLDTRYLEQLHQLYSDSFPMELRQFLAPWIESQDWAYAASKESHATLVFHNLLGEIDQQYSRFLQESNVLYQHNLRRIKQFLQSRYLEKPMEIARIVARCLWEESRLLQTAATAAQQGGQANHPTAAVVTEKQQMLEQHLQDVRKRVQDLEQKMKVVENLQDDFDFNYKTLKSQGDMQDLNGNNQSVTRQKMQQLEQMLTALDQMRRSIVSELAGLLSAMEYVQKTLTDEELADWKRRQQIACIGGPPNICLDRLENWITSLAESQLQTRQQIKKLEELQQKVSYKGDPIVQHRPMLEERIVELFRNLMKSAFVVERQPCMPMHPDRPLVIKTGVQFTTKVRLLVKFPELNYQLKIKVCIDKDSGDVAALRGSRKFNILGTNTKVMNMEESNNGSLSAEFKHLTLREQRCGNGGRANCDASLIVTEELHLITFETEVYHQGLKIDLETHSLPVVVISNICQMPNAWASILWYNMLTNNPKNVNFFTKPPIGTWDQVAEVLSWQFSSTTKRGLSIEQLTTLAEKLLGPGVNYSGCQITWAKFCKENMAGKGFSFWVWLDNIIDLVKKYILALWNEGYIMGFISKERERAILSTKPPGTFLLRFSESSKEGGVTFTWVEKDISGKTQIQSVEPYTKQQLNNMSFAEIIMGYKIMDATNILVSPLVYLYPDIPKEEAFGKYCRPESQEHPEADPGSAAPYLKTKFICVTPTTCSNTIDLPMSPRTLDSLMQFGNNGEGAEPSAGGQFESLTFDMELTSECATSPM

Columns and labels:
[1] = molecular target: Stat3 (MM1 cell nuclear extract, IL-6 stimulated + tyrosine-phosphorylated) (UniProt P40763); assay: EMSA with antibody interference and cold competition; details: IL-6 stimulated MM1 extract; 2 ug nuclear extract with biotin probe in binding buffer (Panomics Gel-Shift Kit; composition, salt and pH not given), 30 min on ice; 5% polyacrylamide TBE gel; protein in an extract; label: biotin
[2] = molecular target: Stat3 (MM1 cell nuclear extract, IL-6 stimulated + tyrosine-phosphorylated) (UniProt P40763); assay: EMSA; details: IL-6 stimulated MM1 extract, no nuclear protein bound; 2 ug nuclear extract with biotin probe in binding buffer (Panomics Gel-Shift Kit; composition, salt and pH not given), 30 min on ice; 5% polyacrylamide TBE gel; protein in an extract; label: biotin
[3] = molecular target: Stat3 (MM1 cell nuclear extract, IL-6 stimulated + tyrosine-phosphorylated) (UniProt P40763); assay: EMSA with cold competition; details: IL-6 stimulated MM1 extract, Stat3 antibody not reported for this probe; 2 ug nuclear extract with biotin probe in binding buffer (Panomics Gel-Shift Kit; composition, salt and pH not given), 30 min on ice; 5% polyacrylamide TBE gel; protein in an extract; label: biotin

Row | Sequence | binding result [2] | also measured
1 | CCGCGACCGCTTTCTGCGAAGTCGGGGAGG (double strand) [ROR1 promoter probe 1 (-143 to -114)] | – | binding result [1]: binds
2 | GGCTGGAGAGTTGGTGGAAAGTGACAAGTT (double strand) [ROR1 promoter probe 2 (-30 to -1)] | no binding | –
3 | TCTCTCAACTCTTGGGTCCAAGAAGAAAGC (double strand) [ROR1 promoter probe 3 (-429 to -400)] | – | binding result [3]: binds
4 | TGACTCTTTTTAGTGTCAATGGAGGATTTG (double strand) [ROR1 promoter probe 4 (-1053 to -1024)] | no binding | –
